Source: PMC3750028
No constants are given. Whether binding was seen depends on the method and setting. Binding seen in cells or lysates may run through a third protein. Some results given as binding are weak or reduced against the parent protein; the word gives no strength. Values belong to the substance of their own block, whether it stands above or below them.

Protein sequences, listed by entry. Tags and fused reporters are not part of them. Residues count along the entry.
UniProt Q08345, residues 19-913: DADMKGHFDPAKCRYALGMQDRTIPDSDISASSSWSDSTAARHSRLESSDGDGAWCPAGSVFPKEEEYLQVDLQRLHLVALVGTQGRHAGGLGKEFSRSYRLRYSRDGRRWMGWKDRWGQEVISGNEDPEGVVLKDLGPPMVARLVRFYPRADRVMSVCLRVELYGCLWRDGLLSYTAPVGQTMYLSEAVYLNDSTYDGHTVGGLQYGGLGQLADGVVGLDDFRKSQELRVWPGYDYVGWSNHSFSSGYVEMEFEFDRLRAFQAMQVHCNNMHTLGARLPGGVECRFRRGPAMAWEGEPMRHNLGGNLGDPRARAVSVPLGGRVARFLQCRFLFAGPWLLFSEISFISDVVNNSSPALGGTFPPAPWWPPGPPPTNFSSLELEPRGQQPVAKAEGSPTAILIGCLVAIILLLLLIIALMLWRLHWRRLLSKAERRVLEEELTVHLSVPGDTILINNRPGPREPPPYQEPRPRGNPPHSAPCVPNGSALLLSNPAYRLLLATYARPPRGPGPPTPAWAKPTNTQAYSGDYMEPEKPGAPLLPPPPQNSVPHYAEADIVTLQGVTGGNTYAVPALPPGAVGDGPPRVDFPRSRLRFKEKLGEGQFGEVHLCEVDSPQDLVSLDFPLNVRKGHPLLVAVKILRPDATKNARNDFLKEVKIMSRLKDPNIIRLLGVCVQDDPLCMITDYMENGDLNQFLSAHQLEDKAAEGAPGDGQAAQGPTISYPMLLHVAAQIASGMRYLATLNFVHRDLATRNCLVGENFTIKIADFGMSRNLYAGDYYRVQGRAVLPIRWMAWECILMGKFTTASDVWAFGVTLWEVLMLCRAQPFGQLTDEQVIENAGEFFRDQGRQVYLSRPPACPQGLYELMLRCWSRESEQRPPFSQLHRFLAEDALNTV
UniProt P39059, residues 28-1388: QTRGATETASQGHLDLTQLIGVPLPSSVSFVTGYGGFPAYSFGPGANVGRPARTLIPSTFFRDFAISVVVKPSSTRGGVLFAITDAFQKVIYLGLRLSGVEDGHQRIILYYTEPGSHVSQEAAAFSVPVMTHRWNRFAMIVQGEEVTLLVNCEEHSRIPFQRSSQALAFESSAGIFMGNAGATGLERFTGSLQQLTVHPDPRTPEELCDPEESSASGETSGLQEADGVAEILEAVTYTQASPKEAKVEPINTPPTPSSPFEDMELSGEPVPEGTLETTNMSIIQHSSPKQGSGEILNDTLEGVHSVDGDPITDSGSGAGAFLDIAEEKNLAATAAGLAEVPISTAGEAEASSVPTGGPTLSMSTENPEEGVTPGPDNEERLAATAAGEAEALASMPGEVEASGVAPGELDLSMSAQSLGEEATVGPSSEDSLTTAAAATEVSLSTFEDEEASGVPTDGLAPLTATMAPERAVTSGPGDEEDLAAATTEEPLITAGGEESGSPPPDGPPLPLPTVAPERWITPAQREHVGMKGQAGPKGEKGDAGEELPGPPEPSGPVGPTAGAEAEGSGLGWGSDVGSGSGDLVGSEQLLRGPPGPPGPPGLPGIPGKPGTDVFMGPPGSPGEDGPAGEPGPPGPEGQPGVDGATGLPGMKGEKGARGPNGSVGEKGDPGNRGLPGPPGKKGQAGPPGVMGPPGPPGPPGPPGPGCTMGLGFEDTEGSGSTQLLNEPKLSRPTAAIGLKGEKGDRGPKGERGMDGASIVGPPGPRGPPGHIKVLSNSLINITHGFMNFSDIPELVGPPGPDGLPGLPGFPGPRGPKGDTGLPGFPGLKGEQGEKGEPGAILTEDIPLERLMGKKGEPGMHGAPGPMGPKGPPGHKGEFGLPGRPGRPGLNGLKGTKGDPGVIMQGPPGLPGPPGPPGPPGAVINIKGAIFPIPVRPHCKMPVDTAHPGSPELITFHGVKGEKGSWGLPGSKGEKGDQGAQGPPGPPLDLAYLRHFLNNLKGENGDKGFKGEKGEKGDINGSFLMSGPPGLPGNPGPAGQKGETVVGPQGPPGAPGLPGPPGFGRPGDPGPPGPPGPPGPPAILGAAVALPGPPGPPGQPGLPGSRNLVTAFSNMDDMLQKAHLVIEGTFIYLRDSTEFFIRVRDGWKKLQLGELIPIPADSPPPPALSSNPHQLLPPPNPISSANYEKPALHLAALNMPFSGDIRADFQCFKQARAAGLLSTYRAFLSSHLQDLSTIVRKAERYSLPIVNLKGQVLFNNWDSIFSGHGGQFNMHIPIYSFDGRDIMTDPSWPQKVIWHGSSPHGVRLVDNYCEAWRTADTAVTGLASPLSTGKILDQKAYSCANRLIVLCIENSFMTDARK

Key:
[1] = target: Discoidin domain receptor 1 (DDR1), endogenous in BxPC-3 cells (human (endogenous in BxPC-3)) (UniProt Q08345); assay: co-IP; IP of DDR1 with DDR1 antibody and protein G-plus beads from lysates (RIPA pH 8.0 or NET buffer) of BxPC-3 vector clone BxVC3 and COLXV clone Bx15.14; western blots probed for COLXV, DDR1 and E-Cad
[2] = target: N-terminal FLAG-epitope tagged COLXV (FCOLXV), stably expressed in BxPC-3 cells (human) (UniProt P39059); assay: co-IP; IP of FLAG-tagged COLXV with M2 anti-FLAG agarose beads from lysate of BxPC-3 clone BxF15.3; western blots probed for DDR1 and E-Cad; also after transfection of DDR1 siRNA, E-Cad siRNA or scrambled siRNA
[3] = target: N-terminal FLAG-epitope tagged COLXV (FCOLXV), stably expressed in S2-013 cells (human) (UniProt P39059); assay: co-IP; IP of FLAG-tagged COLXV with M2 anti-FLAG antibody from S2-013 clone S2.F15.7; western blots probed with anti-DDR1 and anti-E-Cad

binding [1]: binds weakly
Substance: Collagen XV (human COLXV cDNA construct, untagged), stably expressed in BxPC-3 cells (from UniProt P39059 28-1388)

binding [2]: binds
Substance: Discoidin domain receptor 1 (DDR1), endogenous in BxPC-3 cells (from UniProt Q08345 19-913)

binding [3]: binds
Substance: Discoidin domain receptor 1 (DDR1), endogenous in S2-013 cells (from UniProt Q08345 19-913)
